{
  "source": "paper PMC7515946",
  "about": "“Targeting of Perforin Inhibitor into the Brain Parenchyma Via a Prodrug Approach Can Decrease Oxidative Stress and Neuroinflammation and Improve Cell Survival” (Molecular Neurobiology, 2020)",
  "tested_on": "malondialdehyde (MDA) formation in primary astrocytes",
  "test": "LPS-induced lipid peroxidation (MDA formation) in primary astrocytes",
  "settings": "50 μM",
  "data": [
    {"smiles": "N[C@H](Cc1cccc(C(=O)OCc2ccc(-c3ccc(-c4ccc5c(c4)COC5=O)s3)cc2)c1)C(=O)O", "note": "[PFI-PD]", "values": [
      {"measurement": "Inhibitory effect on MDA formation, times greater than parent drug", "value": "~2.0"},
      {"measurement": "Inhibitory effect on MDA formation, times greater than α-tocopherol", "value": 1.5}
    ]}
  ]
}
